# Results taken from PubChem BioAssay AID1347075 (National Center for Advancing Translational Sciences (NCATS), 2019).
# Out of some 400,000 compounds screened, about 5,500 (1.4%) were called active. The inconclusive results got no clear call from the source; some entries with a clear call stand among them for comparison. Calls follow the shape of the dose curve; as a rule, active = well fitted cell-killing curve with a large enough effect; inconclusive = small, poorly fitted or top-dose-only effect, or effect the other way; inactive = flat fitted curve, though single readings scatter. Where the call is inconclusive, the potency comes from a doubtful curve fit.
# Experiment: qHTS assay for MDR1-selective chemotherapeutics: Primary screen using the parental adenocarcinoma cell KB-3-1; also: nearly all actives have a fitted effect of over 60% in size
# Details: KB-3-1 viability, CellTiter-Glo ATP luminescence, 72 h; activity change, negative = cytotoxic: at 46.1 µM (top of the series)
# Procedure, shortened: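 KB-3-1 parental drug-naive adenocarcinoma cells in DMEM/10% FBS, incubated 72 h at 37 C with pin-transferred compounds across a concentration series. Viability by CellTiter-Glo luminescence; concentration-response curves fitted after normalization.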
# % is scaled to controls: 0 for no effect and ±100 for the full control effect; potency is read from the fitted curve at half-maximal effect.
Structure (SMILES),Potency,"activity change, negative = cytotoxic"
O=C(COc1ccc(Cl)cc1Cl)N1CCCN(C(=O)COc2ccc(Cl)cc2Cl)CC1,"inconclusive: 16.4 µM [cytotoxic, partial curve]",–
Oc1ccccc1/C=N/NC(=S)NC1CC2CCC1C2 (configuration not stated),"inconclusive: 18.4 µM [cytotoxic, single point]",–
COc1cccc(-c2cnc(C(O)c3ccc(Cl)cc3)[nH]2)c1 (configuration not stated),inactive,–
COc1ccc(C(C)NC(=O)c2ccoc2C)cc1OC (configuration not stated),"inconclusive: 29.1 µM [cytotoxic, single point]",–
Cc1ccnc(NC(=O)CCCc2c[nH]c3ccccc23)c1,"inconclusive: 14.6 µM [rising, partial curve, poor fit]",–
CC(C)(C)OC(=O)CNC(=O)c1nc[nH]c1C(=O)NCc1ccc(CNC(=O)OC(C)(C)C)cc1,"inconclusive: 29.1 µM [cytotoxic, single point]",–
O=C(COc1ccc(Br)cc1Cl)NC1CCCCC1,"inconclusive: 29.1 µM [cytotoxic, single point]",–
COc1ccc(/C=N/NC(=O)c2cc3cc(OC)c(OC)cc3[nH]2)cc1,inactive,–
Nc1nonc1-n1nnc(C(=O)N/N=C/c2ccccc2)c1CN1CCc2ccccc21,–,inconclusive: 22.4%
CCS(=O)(=O)N1CCC2(CC1)OC(=O)C(C)=C2C(=O)NCc1ccccc1C,inactive,–
O=C(CCCN1C(=O)/C(=C/c2ccco2)SC1=S)Nc1ccccc1,"inconclusive: 29.1 µM [cytotoxic, single point]",–
CCOc1ccc(C(=O)Nc2ccc(NC(=O)c3ccco3)c(Cl)c2)cc1Cl,"inconclusive: 18.4 µM [cytotoxic, partial curve, poor fit]",–
CCOc1ccc(/C=N/NC(=O)c2csc(C)c2C)c(OCC)c1,inactive,–
CC(OC(=O)c1ccccc1Br)C(=O)Nc1nc(-c2cccc([N+](=O)[O-])c2)cs1 (configuration not stated),inactive,–
COc1ccc(C(=O)N(NC(=O)Oc2ccccc2)C(C)(C)C)cc1,inactive,–
Cc1cc(C(=O)COc2ccc(Br)cc2F)c(C)n1C1CC1,"inconclusive: 16.4 µM [cytotoxic, partial curve, poor fit]",–
O=C(Nc1ccc(Cl)cc1C(=O)NCCN1CCOCC1)c1ccco1,inactive,–
COc1ccc(-c2cc(=O)c3c(OC)c(OC)c(OC)c(OC)c3o2)cc1OC,inactive,–
CCOC(=O)C1CCCN(S(=O)(=O)CCNC(=O)c2cccc(OC)c2)C1 (configuration not stated),"inconclusive: 5.8 µM [cytotoxic, full curve, poor fit]",–
CCOc1ccc(-c2ncncc2-c2ccccc2OC)c(O)c1,"inconclusive: 32.6 µM [cytotoxic, single point]",–
COc1cc2c(C(=O)N3CCOCC3)c(CSc3ccccc3)n(C)c2cc1Br,"inconclusive: 29.1 µM [cytotoxic, single point]",–
O=C(NC12CC3CC(CC(C3)C1)C2)c1ccc(COc2ccc(Cl)cc2[N+](=O)[O-])o1,"inconclusive: 2.91 µM [cytotoxic, full curve]",–
CC(=O)Nc1ccc2sccc2c1,inactive,–
O=C(C[n+]1ccncc1)c1ccc2ccccc2c1,"inconclusive: 29.1 µM [rising, single point]",–

# Whole records as entered above. Values in the order: Potency	activity change, negative = cytotoxic
# Cc1cc(C(=O)COc2ccc(Br)cc2F)c(C)n1C1CC1 in the list: inconclusive: 16.4 µM [cytotoxic, partial curve, poor fit]	–
# COc1cccc(-c2cnc(C(O)c3ccc(Cl)cc3)[nH]2)c1 (configuration not stated) in the list: inactive	–
# COc1ccc(C(C)NC(=O)c2ccoc2C)cc1OC (configuration not stated) in the list: inconclusive: 29.1 µM [cytotoxic, single point]	–
# COc1cc2c(C(=O)N3CCOCC3)c(CSc3ccccc3)n(C)c2cc1Br in the list: inconclusive: 29.1 µM [cytotoxic, single point]	–

# (cont.)

Structure (SMILES),Potency,"activity change, negative = cytotoxic"
Clc1ccc(Cl)c(OCCCCN2CCNCC2)c1,"inconclusive: 20.6 µM [cytotoxic, partial curve, poor fit]",–
COc1ccc(CCNC(=O)c2ccc3c(c2)c(C)c(C)n3Cc2ccccc2)c(OC)c1OC,inactive,–
NC(Cc1ccc(F)cc1)c1csc(Nc2ccc(C(F)(F)F)cn2)n1 (configuration not stated),"inconclusive: 29.1 µM [cytotoxic, single point]",–
FC(F)(F)c1nc(N2CCCC2)ncc1-c1nnnn1-c1ccccc1,"inconclusive: 18.4 µM [cytotoxic, single point]",–
Cc1ccc(OCC(=O)NCCNC(=O)c2ccncc2)cc1,"inconclusive: 29.1 µM [rising, single point]",–
CC(NC(=O)/C(C#N)=C/c1cn(-c2ccccc2)nc1-c1ccc(F)cc1)c1ccccc1 (configuration not stated),inactive,–
O=C(NCc1ccc2c(c1)OCO2)C1CCN(c2ccc(S(=O)(=O)N3CCCC3)cc2)CC1,"inconclusive: 18.4 µM [cytotoxic, single point]",–
O=C(Nc1nnc(S(=O)(=O)N2CCCCCC2)s1)c1cccc(Br)c1,"inconclusive: 29.1 µM [cytotoxic, single point]",–
Cc1cc[n+](CC(=O)c2ccc(F)cc2)cc1,"inconclusive: 8.2 µM [rising, partial curve, poor fit]",–
O=C(Nc1nccs1)c1ccc(NC(=O)c2ccco2)cc1,"inconclusive: 6.51 µM [rising, partial curve]",–
COc1ccc(CN2C(=O)c3ccccc3C2C(=O)NCC2CCCO2)c(OC)c1 (configuration not stated),"inconclusive: 10.3 µM [rising, partial curve, poor fit]",–
O=c1[nH]c(Nc2ccccc2)cc2cc(Br)ccc12,inactive,–
CCc1ccc2oc(=O)cc(CN(C)Cc3ccccc3)c2c1,–,inconclusive: -32.8% [cytotoxic]
O=C(COc1ccccc1)Nc1ccc2nc(SCC(=O)N3CCc4ccccc43)sc2c1,inactive,–
Fc1cc2[nH]c(=S)[nH]c2c(Br)c1N1CCSCC1,active: 2.06 µM,–
Cc1ccc2[nH]c(C(=O)O)c(-c3ccccc3)c2c1,inactive,–
COc1ccc2nc(N=NC3=C(O)CC(C)(C)CC3=O)sc2c1,"inconclusive: 13 µM [cytotoxic, partial curve]",–
Oc1c(Br)cc(CNC2CCCCC2)cc1Br,"inconclusive: 29.1 µM [rising, single point]",–
NNC(=O)CNC(c1ccccc1)c1cc(Br)ccc1NC(=O)c1ccc(Br)cc1 (configuration not stated),inactive,–
COc1ccc(NC(=O)COC(=O)c2ccc(OCc3ccc(Cl)cc3Cl)c(OC)c2)c(OC)c1,"inconclusive: 20.6 µM [cytotoxic, single point]",–
COc1ccc(OC)c(NC(=O)C2CC(/C=C/c3ccccc3)=NO2)c1 (configuration not stated),inactive,–
COc1ccc(/C=N/Nc2nc(Nc3ccccc3)nc(N3CCCCC3)n2)c(OC)c1,"inconclusive: 20.6 µM [cytotoxic, single point]",–
CCOC(=O)CCC(=O)NNC(=O)COc1ccc(C(C)C)cc1Br,inactive,–
COc1cc2c(cc1OC)C(COc1cc(C)cc(C)c1)N(C(=O)c1ccc(S(=O)(=O)N3CCCC3)cc1)CC2 (configuration not stated),inactive,–

Structure (SMILES),Potency,"activity change, negative = cytotoxic"
COc1ccc(NC(=O)CN2C(=O)NC3(CCCc4ccccc43)C2=O)c(OC)c1 (configuration not stated),inactive,–
CC1CN(CC(O)COC(c2ccc(Cl)cc2)c2ccc(Cl)cc2)CC(C)O1 (configuration not stated),"inconclusive: 13 µM [cytotoxic, partial curve, poor fit]",–
CC(=O)c1nn(-c2cccc(C)c2)cc1C(=O)c1cccc(Br)c1,–,inconclusive: -3.86%
Cc1cc(C)cc(NC2=NCC(=O)N2Cc2ccccc2)c1,inactive,–
c1ccc(Nc2nc(N3CCOCC3)nc(N3CCOCC3)n2)cc1,active: 16.4 µM,–
CCc1nnc(NC(=O)CSc2nc3c([nH]c4ccccc43)c(=O)n2-c2ccc(C)cc2)s1,inactive,–
CCN1CCN(C(=O)c2ccc(CS(=O)(=O)Cc3ccccc3Cl)o2)CC1,inactive,–
COc1ccc2c(c1)[C@H]1[C@H](CO2)[C@H](c2ccccc2)[C@]2(C)C(=O)Nc3ccc(C)cc3C(=O)N12,"inconclusive: 29.1 µM [cytotoxic, single point]",–
Cc1ccccc1-c1noc(CCC(=O)NC2CCCCC2)n1,"inconclusive: 20.6 µM [rising, single point]",–
CCC(=O)N1CCc2cc(S(=O)(=O)NC(C(=O)NC3CCCc4ccccc43)C(C)C)ccc21 (configuration not stated),"inconclusive: 16.4 µM [rising, single point]",–
Cc1ccc(C)c(-c2ccc(=O)n(Cc3ccc(F)cc3Cl)n2)c1,"inconclusive: 29.1 µM [cytotoxic, single point]",–
CCN(CC)c1ccc(C(=O)Nc2ccc3nc(N(CC)CC)cc(C)c3c2)cc1,"inconclusive: 18.4 µM [cytotoxic, single point]",–
COCCN(C(=O)CCC(=O)Nc1cc(C)on1)C(C(=O)NC1CCCC1)c1ccccc1C (configuration not stated),inactive,–
Cc1nc2c3cc(F)ccc3n(Cc3ccccc3F)c2s1,"inconclusive: 29.1 µM [cytotoxic, single point]",–
C(=N\N1CCN(Cc2cccc3ccccc23)CC1)/c1cccnc1,"inconclusive: 29.1 µM [cytotoxic, single point]",–
COc1ccc(NC(=O)N2CCCc3ccccc32)cc1,inactive,–
Cc1ccc2[nH]c(CSc3nnc(NC(=O)COc4ccccc4Cl)s3)cc(=O)c2c1,inactive,–
CCOC(=O)c1c(CSc2ccc(CC)cc2)oc2ccc(O)c(CN(C)C)c12,"inconclusive: 20.6 µM [cytotoxic, single point]",–
O=S(=O)(/N=C(/Nc1cccc2ccccc12)c1ccccc1)c1cccs1,"inconclusive: 18.4 µM [cytotoxic, single point]",–
Cc1ccc(CNC(=O)c2sc3ncnc(N(C)C4CCCCC4)c3c2C)cc1,"inconclusive: 29.1 µM [cytotoxic, single point]",–
O=C(/C=C/Nc1ccc(F)c(Cl)c1)c1ccco1,"inconclusive: 23.1 µM [cytotoxic, single point]",–
COc1ccc(CCN(C)CCCN2CC(c3ccccc3)CC2=O)cc1OC (configuration not stated),inactive,–
Cc1cc2oc(=O)c(CC(=O)NCCCN(C)C)c(C)c2c2occ(C(C)(C)C)c12,"inconclusive: 25.9 µM [cytotoxic, single point]",–
CCOc1ccc2nc(CN3CCN(Cc4ccccc4OCC)C(CCO)C3)ccc2c1 (configuration not stated),"inconclusive: 29.1 µM [cytotoxic, single point]",–
